Reference: the supplement of paper PMC10032668
The list shows a part of the results. Only hits are listed; about a third recur on repeated control peptides.

By UniProt entry, the sequences of proteins in these tests, tags left out. Where a name states a change or a piece, a line headed by the entry shows the natural chain unless it says otherwise.
A2M, P01023, UniProt P01023, whole entry: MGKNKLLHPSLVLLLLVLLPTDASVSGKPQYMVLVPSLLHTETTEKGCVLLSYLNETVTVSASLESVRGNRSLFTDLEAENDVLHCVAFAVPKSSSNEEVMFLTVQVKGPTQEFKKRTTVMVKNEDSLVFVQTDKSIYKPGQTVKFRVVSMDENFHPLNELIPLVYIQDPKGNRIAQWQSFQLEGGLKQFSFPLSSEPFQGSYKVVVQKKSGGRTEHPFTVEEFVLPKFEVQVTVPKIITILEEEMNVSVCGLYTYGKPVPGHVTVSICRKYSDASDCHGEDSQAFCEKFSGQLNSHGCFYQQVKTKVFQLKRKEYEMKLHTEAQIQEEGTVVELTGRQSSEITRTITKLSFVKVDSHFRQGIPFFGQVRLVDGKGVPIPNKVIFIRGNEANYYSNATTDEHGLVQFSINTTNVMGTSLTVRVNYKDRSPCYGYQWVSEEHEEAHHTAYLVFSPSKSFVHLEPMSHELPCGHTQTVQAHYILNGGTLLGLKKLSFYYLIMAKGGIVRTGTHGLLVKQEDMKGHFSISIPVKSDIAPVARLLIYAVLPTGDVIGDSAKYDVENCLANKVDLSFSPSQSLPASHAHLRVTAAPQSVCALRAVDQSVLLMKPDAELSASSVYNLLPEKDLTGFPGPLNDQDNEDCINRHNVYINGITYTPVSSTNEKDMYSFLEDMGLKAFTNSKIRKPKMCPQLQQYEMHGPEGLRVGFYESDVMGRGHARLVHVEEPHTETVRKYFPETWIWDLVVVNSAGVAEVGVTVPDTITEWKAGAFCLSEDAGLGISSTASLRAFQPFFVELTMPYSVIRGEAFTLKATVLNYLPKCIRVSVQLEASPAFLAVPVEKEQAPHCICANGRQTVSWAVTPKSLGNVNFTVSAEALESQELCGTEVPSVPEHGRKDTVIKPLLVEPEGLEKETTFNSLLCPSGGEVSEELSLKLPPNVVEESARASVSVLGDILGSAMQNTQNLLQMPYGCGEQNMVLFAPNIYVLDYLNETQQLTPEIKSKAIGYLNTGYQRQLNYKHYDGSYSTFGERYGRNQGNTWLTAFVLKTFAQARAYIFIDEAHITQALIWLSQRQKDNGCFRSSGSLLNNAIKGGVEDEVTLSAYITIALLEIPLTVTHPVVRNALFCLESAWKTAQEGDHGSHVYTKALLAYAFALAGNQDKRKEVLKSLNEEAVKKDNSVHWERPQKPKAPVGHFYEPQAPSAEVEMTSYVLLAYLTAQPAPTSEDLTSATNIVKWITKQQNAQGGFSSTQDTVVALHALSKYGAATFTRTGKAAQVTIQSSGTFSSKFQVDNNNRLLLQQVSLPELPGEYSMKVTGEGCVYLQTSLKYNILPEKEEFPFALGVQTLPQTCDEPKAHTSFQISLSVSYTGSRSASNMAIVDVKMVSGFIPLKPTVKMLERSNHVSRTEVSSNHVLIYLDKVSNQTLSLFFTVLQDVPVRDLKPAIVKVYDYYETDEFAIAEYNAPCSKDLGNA
NCL, P19338, UniProt P19338, whole entry: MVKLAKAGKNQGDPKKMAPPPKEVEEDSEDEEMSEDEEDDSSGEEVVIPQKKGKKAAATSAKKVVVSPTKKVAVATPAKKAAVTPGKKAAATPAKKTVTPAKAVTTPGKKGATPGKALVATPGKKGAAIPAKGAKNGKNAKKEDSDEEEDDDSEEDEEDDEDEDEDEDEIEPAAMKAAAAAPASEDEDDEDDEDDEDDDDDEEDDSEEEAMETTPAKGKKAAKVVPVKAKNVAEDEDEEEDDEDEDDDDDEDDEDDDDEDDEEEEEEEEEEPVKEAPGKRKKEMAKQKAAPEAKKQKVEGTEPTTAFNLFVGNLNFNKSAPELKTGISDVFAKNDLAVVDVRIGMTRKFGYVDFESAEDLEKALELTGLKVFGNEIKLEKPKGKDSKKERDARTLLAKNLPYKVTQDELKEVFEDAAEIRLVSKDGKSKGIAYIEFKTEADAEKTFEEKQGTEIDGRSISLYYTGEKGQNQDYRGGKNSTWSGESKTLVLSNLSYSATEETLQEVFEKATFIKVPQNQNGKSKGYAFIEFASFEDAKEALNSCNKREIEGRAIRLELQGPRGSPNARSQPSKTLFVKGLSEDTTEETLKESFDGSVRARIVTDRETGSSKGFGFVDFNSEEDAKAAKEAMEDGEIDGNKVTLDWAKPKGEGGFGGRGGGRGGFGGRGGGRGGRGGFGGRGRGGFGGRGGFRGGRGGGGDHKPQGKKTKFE
RGPD5, Q99666, UniProt Q99666, whole entry: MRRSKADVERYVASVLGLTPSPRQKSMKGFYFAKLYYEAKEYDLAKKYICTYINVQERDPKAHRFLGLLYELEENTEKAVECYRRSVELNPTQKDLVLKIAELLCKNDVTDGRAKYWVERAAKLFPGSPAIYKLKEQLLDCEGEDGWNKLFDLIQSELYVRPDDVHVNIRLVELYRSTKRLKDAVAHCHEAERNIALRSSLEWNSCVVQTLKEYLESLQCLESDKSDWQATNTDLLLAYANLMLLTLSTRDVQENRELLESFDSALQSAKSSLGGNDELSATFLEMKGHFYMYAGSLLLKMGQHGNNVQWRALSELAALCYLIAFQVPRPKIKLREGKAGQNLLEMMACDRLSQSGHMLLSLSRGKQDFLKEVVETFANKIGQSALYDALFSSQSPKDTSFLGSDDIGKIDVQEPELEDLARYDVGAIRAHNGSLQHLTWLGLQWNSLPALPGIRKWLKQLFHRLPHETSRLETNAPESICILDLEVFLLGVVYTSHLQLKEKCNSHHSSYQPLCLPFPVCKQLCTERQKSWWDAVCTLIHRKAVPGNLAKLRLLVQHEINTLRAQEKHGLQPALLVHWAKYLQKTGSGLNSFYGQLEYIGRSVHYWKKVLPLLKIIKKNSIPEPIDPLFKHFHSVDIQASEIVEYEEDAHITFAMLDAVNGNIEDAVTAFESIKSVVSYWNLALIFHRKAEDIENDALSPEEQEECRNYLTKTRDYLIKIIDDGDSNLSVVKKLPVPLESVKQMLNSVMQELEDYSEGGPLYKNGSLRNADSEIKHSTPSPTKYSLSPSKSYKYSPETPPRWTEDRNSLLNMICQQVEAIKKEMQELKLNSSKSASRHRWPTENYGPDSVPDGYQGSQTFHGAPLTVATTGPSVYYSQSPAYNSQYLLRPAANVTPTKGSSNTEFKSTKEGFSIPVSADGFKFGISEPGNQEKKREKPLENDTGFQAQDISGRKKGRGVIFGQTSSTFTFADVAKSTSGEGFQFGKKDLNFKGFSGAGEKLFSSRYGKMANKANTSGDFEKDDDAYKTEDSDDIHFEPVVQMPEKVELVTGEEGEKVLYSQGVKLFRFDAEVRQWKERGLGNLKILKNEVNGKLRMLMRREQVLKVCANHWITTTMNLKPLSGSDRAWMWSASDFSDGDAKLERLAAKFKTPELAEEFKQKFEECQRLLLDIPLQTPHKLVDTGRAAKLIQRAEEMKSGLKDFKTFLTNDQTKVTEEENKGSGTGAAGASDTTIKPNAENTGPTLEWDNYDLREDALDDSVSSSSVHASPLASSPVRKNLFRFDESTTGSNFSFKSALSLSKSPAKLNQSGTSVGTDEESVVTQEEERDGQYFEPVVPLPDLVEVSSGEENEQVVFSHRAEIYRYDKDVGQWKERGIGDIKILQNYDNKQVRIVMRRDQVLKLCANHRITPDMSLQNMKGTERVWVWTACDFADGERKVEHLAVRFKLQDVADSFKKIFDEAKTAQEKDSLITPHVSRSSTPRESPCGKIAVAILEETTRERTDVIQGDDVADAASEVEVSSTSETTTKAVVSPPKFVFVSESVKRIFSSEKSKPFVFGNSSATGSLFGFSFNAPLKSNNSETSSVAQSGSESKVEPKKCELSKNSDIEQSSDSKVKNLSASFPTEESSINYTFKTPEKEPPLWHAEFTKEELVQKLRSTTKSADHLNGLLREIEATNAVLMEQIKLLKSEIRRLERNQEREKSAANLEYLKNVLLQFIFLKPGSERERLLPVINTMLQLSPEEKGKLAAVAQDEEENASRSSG
ANAPC7, Q9UJX3, UniProt Q9UJX3, whole entry: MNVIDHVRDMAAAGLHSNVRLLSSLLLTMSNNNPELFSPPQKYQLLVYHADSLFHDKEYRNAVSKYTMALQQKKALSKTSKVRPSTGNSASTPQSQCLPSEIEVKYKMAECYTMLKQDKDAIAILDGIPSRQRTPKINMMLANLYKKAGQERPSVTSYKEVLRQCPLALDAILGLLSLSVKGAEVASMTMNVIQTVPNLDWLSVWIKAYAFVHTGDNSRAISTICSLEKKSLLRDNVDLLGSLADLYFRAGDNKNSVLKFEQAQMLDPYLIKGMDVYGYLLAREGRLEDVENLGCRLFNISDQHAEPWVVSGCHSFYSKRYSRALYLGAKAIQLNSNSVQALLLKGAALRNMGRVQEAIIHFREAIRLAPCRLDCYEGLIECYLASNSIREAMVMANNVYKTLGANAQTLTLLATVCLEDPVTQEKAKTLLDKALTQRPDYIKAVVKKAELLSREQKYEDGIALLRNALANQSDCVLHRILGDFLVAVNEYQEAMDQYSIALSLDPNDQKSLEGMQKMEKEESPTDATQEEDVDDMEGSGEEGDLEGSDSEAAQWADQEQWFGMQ

Key:
Test in all cases: PRISMA enrichment of interactor (LFQ) in peptide spot vs all other peptide spots (log2 fold change); higher = stronger / more specific binding of the interactor to the peptide
A2M, P01023 = target: A2M, P01023
Description: (§1)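 PRISMA: 15-aa overlapping tiles (offset 8 aa) of 60 microproteins, plus SOS1/GLUT1 control peptides, were spot-synthesized on cellulose membranes in triplicate. Membranes were incubated with benzonase-treated HEK293T lysate, and bound proteins were identified by LC-MS/MS with LFQ. Enrichment is the log2 fold change of each protein in one spot versus all other spots. Only interactors passing the significance cutoff are listed.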

AAR2, Q9Y312 = target: AAR2, Q9Y312
Description: as §1

ACSL3, O95573 = target: ACSL3, O95573
Description: as §1

AFF3, P51826 = target: AFF3, P51826
Description: as §1

ALG1, Q9BT22 = target: ALG1, Q9BT22
Description: as §1

CDC73, Q6P1J9 = target: CDC73, Q6P1J9
Description: as §1

CEBPZ, Q03701 = target: CEBPZ, Q03701
Description: as §1

CYC1, P08574 = target: CYC1, P08574
Description: as §1

GRPEL1, Q9HAV7 = target: GRPEL1, Q9HAV7
Description: as §1

LYPLAL1, Q5VWZ2 = target: LYPLAL1, Q5VWZ2
Description: as §1

MTPAP, Q9NVV4 = target: MTPAP, Q9NVV4
Description: as §1

NCL, P19338 = target: NCL, P19338
Description: as §1

NEK7, Q8TDX7 = target: NEK7, Q8TDX7
Description: as §1

ORC2, Q13416 = target: ORC2, Q13416
Description: as §1

ORC5, O43913 = target: ORC5, O43913
Description: as §1

OXA1L, Q15070 = target: OXA1L, Q15070
Description: as §1

PPP1R2, P41236 = target: PPP1R2, P41236
Description: as §1

PTMA, P06454 = target: PTMA, P06454
Description: as §1

RGPD5, Q99666 = target: RGPD5, Q99666
Description: as §1

RPUSD3, Q6P087 = target: RPUSD3, Q6P087
Description: as §1

SMC3, Q9UQE7 = target: SMC3, Q9UQE7
Description: as §1

SRSF2, Q01130 = target: SRSF2, Q01130
Description: as §1

STMN1, P16949 = target: STMN1, P16949
Description: as §1

UQCRFS1, P47985 = target: UQCRFS1, P47985
Description: as §1

USP7, Q93009 = target: USP7, Q93009
Description: as §1

ZBTB11, O95625 = target: ZBTB11, O95625
Description: as §1

AAAS, Q9NRG9 = target: AAAS, Q9NRG9
Description: as §1

ALDOB, P05062 = target: ALDOB, P05062
Description: as §1

ANAPC7, Q9UJX3 = target: ANAPC7, Q9UJX3
Description: as §1

CCDC88A, Q3V6T2 = target: CCDC88A, Q3V6T2
Description: as §1

CSNK2A2, P19784 = target: CSNK2A2, P19784
Description: as §1

DDOST, P39656 = target: DDOST, P39656
Description: as §1

DEF8, Q6ZN54 = target: DEF8, Q6ZN54
Description: as §1

DHX29, Q7Z478 = target: DHX29, Q7Z478
Description: as §1

DIEXF, Q68CQ4 = target: DIEXF, Q68CQ4
Description: as §1

DKC1, O60832 = target: DKC1, O60832
Description: as §1

EI24, O14681 = target: EI24, O14681
Description: as §1

HP, P00738 = target: HP, P00738
Description: as §1

LEO1, Q8WVC0 = target: LEO1, Q8WVC0
Description: as §1

PDCD10, Q9BUL8 = target: PDCD10, Q9BUL8
Description: as §1

POP1, Q99575 = target: POP1, Q99575
Description: as §1

RNF213, Q63HN8 = target: RNF213, Q63HN8
Description: as §1

SETD7, Q8WTS6 = target: SETD7, Q8WTS6
Description: as §1

SSR3, Q9UNL2 = target: SSR3, Q9UNL2
Description: as §1

TMED2, Q15363 = target: TMED2, Q15363
Description: as §1

ZNF275, Q9NSD4 = target: ZNF275, Q9NSD4
Description: as §1

KSSALGKEVGRRVKE [IDI2-AS1]
PRISMA enrichment of interactor (log2) (A2M, P01023): 5.09
PRISMA enrichment of interactor (log2) (AAR2, Q9Y312): 5.61
PRISMA enrichment of interactor (log2) (ACSL3, O95573): 6.09
PRISMA enrichment of interactor (log2) (AFF3, P51826): 3.9
PRISMA enrichment of interactor (log2) (ALG1, Q9BT22): 7.95
PRISMA enrichment of interactor (log2) (CDC73, Q6P1J9): 5.84
PRISMA enrichment of interactor (log2) (CEBPZ, Q03701): 4.38
PRISMA enrichment of interactor (log2) (CYC1, P08574): 5.01
PRISMA enrichment of interactor (log2) (GRPEL1, Q9HAV7): 5.08
PRISMA enrichment of interactor (log2) (LYPLAL1, Q5VWZ2): 5.08
PRISMA enrichment of interactor (log2) (MTPAP, Q9NVV4): 7.73
PRISMA enrichment of interactor (log2) (NCL, P19338): 4.68
PRISMA enrichment of interactor (log2) (NEK7, Q8TDX7): 4.46
PRISMA enrichment of interactor (log2) (ORC2, Q13416): 4.25
PRISMA enrichment of interactor (log2) (ORC5, O43913): 6.14
PRISMA enrichment of interactor (log2) (OXA1L, Q15070): 4.55
PRISMA enrichment of interactor (log2) (PPP1R2, P41236): 4.39
PRISMA enrichment of interactor (log2) (PTMA, P06454): 6.12
PRISMA enrichment of interactor (log2) (RGPD5, Q99666): 5.83
PRISMA enrichment of interactor (log2) (RPUSD3, Q6P087): 4.24
PRISMA enrichment of interactor (log2) (SMC3, Q9UQE7): 4.8
PRISMA enrichment of interactor (log2) (SRSF2, Q01130): 5.07
PRISMA enrichment of interactor (log2) (STMN1, P16949): 4.39
PRISMA enrichment of interactor (log2) (UQCRFS1, P47985): 6.79
PRISMA enrichment of interactor (log2) (USP7, Q93009): 4.91
PRISMA enrichment of interactor (log2) (ZBTB11, O95625): 5.55

NVTGLNTILHFRKRT [LINC01560]
PRISMA enrichment of interactor (log2) (AAAS, Q9NRG9): 5.83
PRISMA enrichment of interactor (log2) (ALDOB, P05062): 7.71
PRISMA enrichment of interactor (log2) (ANAPC7, Q9UJX3): 9.42
PRISMA enrichment of interactor (log2) (CCDC88A, Q3V6T2): 4.39
PRISMA enrichment of interactor (log2) (CSNK2A2, P19784): 4.1
PRISMA enrichment of interactor (log2) (DDOST, P39656): 6.28
PRISMA enrichment of interactor (log2) (DEF8, Q6ZN54): 4.44
PRISMA enrichment of interactor (log2) (DHX29, Q7Z478): 3.89
PRISMA enrichment of interactor (log2) (DIEXF, Q68CQ4): 6.14
PRISMA enrichment of interactor (log2) (DKC1, O60832): 10.8
PRISMA enrichment of interactor (log2) (EI24, O14681): 4.26
PRISMA enrichment of interactor (log2) (HP, P00738): 4.91
PRISMA enrichment of interactor (log2) (LEO1, Q8WVC0): 6.32
PRISMA enrichment of interactor (log2) (PDCD10, Q9BUL8): 5.76
PRISMA enrichment of interactor (log2) (POP1, Q99575): 6.26
PRISMA enrichment of interactor (log2) (RNF213, Q63HN8): 5.73
PRISMA enrichment of interactor (log2) (RPUSD3, Q6P087): 7.96
PRISMA enrichment of interactor (log2) (SETD7, Q8WTS6): 6.78
PRISMA enrichment of interactor (log2) (SSR3, Q9UNL2): 4.65
PRISMA enrichment of interactor (log2) (TMED2, Q15363): 6.37
PRISMA enrichment of interactor (log2) (ZNF275, Q9NSD4): 3.9
